Reference: PubChem BioAssay AID1508588 (Peter MacCallum Cancer Centre, 2020)
In all, the deposit lists about 18,000 reagents; below is an unselected part. 790 of them (4.4%) count as active. 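Calls rest on a combination of fold-change classes in drug and vehicle arms, not all shown here.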 No sequences are given here.

Screen: 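Which gene losses make BRAF-mutant melanoma cells more responsive to vemurafenib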 (primary screen)
System: human WM266.4 melanoma cells (BRAF V600 mutant)
Knock-down reagent: siRNA pool against human genes, 40 nM
Duration: 96 h from transfection to read-out
Challenge: vemurafenib 300 nM (about IC25), added 48 h after transfection, for 48 h; comparison arm got DMSO vehicle only
Read-out: 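Cell gain (DAPI nuclei at end minus before drug, mean of two replicates) and medium lactate by absorbance per cell, both as ratio to non-targeting siRNA, also grouped into fold-change classes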
Scale: cell gain with vemurafenib: higher = more cell gain than with non-targeting siRNA; lactate per cell with vemurafenib: higher = more lactate made per cell
Active means: 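a knock-down counts as enhancing when its fold-change classes with vehicle and with vemurafenib, taken together, show a stronger drug effect on cell gain or lactate per cell; exact class pairs not stated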
Meaning of the calls: active = enhances vemurafenib effect; inactive = no enhancement seen

no.	Gene	cell gain with vemurafenib	lactate per cell with vemurafenib	Call
1	MON2 (MON2 regulator of endosome-to-Golgi trafficking)	0.98	0.78	inactive
2	ERI1 (exoribonuclease 1)	0.78	1.01	inactive
3	CHML (CHM like Rab escort protein)	-0.09	1.6	inactive
4	KLHL42 (kelch like family member 42)	0.46	1.29	inactive
5	DEPTOR (DEP domain containing MTOR interacting protein)	0.85	1.17	inactive
6	KRT1 (keratin 1)	0.49	0.98	inactive
7	TUSC3 (tumor suppressor candidate 3)	1.19	0.56	inactive
8	PKIG (cAMP-dependent protein kinase inhibitor gamma)	0.92	1.24	inactive
9	ERAS (ES cell expressed Ras)	1.28	0.86	inactive
10	ZNRF1 (zinc and ring finger 1)	0.14	1.02	inactive
11	CYP27A1 (cytochrome P450 family 27 subfamily A member 1)	0.29	0.88	inactive
12	OR1I1 (olfactory receptor family 1 subfamily I member 1)	0.29	0.06	inactive
13	PRDM2 (PR/SET domain 2)	0.88	1.06	inactive
14	WRNIP1 (WRN helicase interacting protein 1)	0.68	0.7	inactive
15	KNSTRN (kinetochore localized astrin (SPAG5) binding protein)	0.35	0.92	inactive
16	MEGF11 (multiple EGF like domains 11)	0.59	1.38	inactive
17	COL1A2 (collagen type I alpha 2 chain)	0.07	1.43	inactive
18	DPPA3 (developmental pluripotency associated 3)	0.83	0.24	inactive
19	ANAPC16 (anaphase promoting complex subunit 16)	0.46	1.54	inactive
20	USP3 (ubiquitin specific peptidase 3)	0.76	0.54	inactive
21	DEFB116 (defensin beta 116)	0.72	0.48	inactive
22	LNX2 (ligand of numb-protein X 2)	0.34	0.68	inactive
23	EPCAM (epithelial cell adhesion molecule)	0.89	0.99	inactive
24	FCGR2A (Fc gamma receptor IIa)	0.35	0.97	inactive
25	ZNF563 (zinc finger protein 563)	0.04	2.46	inactive
26	CFAP206 (cilia and flagella associated protein 206)	0.36	0.55	inactive
27	RPRML (reprimo like)	0.24	2.36	inactive
28	BTBD8 (BTB domain containing 8)	0.74	0.6	inactive
29	MIMS1 (mitochondrial inner membrane structural 1)	0.28	0.29	inactive
30	SLC25A3	0.44	1.54	inactive
31	FAM228A (family with sequence similarity 228 member A)	0.1	1.55	inactive
32	ZNF780B (zinc finger protein 780B)	0.51	1.5	inactive
33	UBE2J1 (ubiquitin conjugating enzyme E2 J1)	0.47	1.98	inactive
34	NBPF11 (NBPF member 11)	0.89	0.38	inactive
35	CDH20 (cadherin 20)	0.67	0.83	inactive
36	TNFSF4 (TNF superfamily member 4)	0.35	1.03	inactive
37	LRRN3 (leucine rich repeat neuronal 3)	0.72	0.38	active
38	PRR15 (proline rich 15)	0.02	3.85	inactive
39	NAT8 (N-acetyltransferase 8 (putative))	0.8	0.73	inactive
40	OR2U1P (olfactory receptor family 2 subfamily U member 1 pseudogene)	0.58	0.28	inactive
41	FAM47C (family with sequence similarity 47 member C)	0.7	1.1	inactive
42	HSPBAP1 (HSPB1 associated protein 1)	0.03	0.16	active
43	SRSF2 (serine and arginine rich splicing factor 2)	0.3	1.01	inactive
44	LRATD2 (LRAT domain containing 2)	0.86	0.56	inactive
45	PRC1 (protein regulator of cytokinesis 1)	0	0.85	inactive
46	LY6G6C (lymphocyte antigen 6 family member G6C)	0.64	1.49	inactive
47	PUS1 (pseudouridine synthase 1)	0.65	2.07	inactive
48	STAP1 (signal transducing adaptor family member 1)	0.53	1.23	inactive
49	TXNL1 (thioredoxin like 1)	0.87	0.66	active
50	PANX2 (pannexin 2)	0.6	1.54	inactive
51	OR1D2 (olfactory receptor family 1 subfamily D member 2)	0.35	0.82	inactive
52	MPPED1 (metallophosphoesterase domain containing 1)	0.46	1.75	inactive
53	PPP1R9A (protein phosphatase 1 regulatory subunit 9A)	0.79	0.87	inactive
54	EMID1 (EMI domain containing 1)	0.65	1	inactive
55	BTBD16 (BTB domain containing 16)	0.75	0.62	inactive
56	TNPO3 (transportin 3)	0.04	-0.02	active
57	MRPS22 (mitochondrial ribosomal protein S22)	0.79	0.66	inactive
